Taken from: PubChem BioAssay AID1224830 (NIAID, 2016)
The whole screen tested about 18,000 reagents; below is a part drawn at random. About 2,900 of them (16%) count as active. 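Calls are made per well; low scores hint the gene aids the LPS response, high scores that it dampens it.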 Repeated entries: four replicate wells of each siRNA pool. Reagent sequences are not shown.

Purpose: 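Genes whose knock-down alters the TNF-alpha reporter response to LPS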 (primary screen)
System: human THP-1 monocytic leukaemia cells, TNF dual-luciferase reporter clone, PMA-differentiated to macrophage-like cells
Reagents: siRNA pool against human genes, 50 nM
Timing: LPS for 4 h, given about 3 days after siRNA transfection
Treatment: bacterial LPS (TLR4 ligand), 10 ng/ml
Measurement: 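Ratio of firefly to renilla light, scaled to the plate median and expressed as a robust z-score per replicate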
Scale: TNF reporter robust z-score: higher = stronger TNF reporter response to LPS
Active means: 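Each well counts as active if its z-score is over 2.8 or under -1.5; controls are left without a call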

target | TNF reporter robust z-score | activity call
RAX | 0.4 | inactive
RAX | 0.25 | inactive
RAX | 1.04 | inactive
RAX | -0.58 | inactive
KAT8 | 4.38 | active
KAT8 | 0.33 | inactive
KAT8 | 0.66 | inactive
KAT8 | -1.33 | inactive
PDK2 | 0.38 | inactive
PDK2 | -0.2 | inactive
PDK2 | -0.24 | inactive
PDK2 | -0.63 | inactive
HACD4 | -0.16 | inactive
HACD4 | -0.82 | inactive
HACD4 | -0.59 | inactive
HACD4 | 0.38 | inactive
SRSF6 | 0.39 | inactive
SRSF6 | -0.1 | inactive
SRSF6 | 0.1 | inactive
SRSF6 | 0.68 | inactive
FGFR1OP2 | 0.45 | inactive
FGFR1OP2 | 0.04 | inactive
FGFR1OP2 | -1.56 | active
FGFR1OP2 | -0.8 | inactive
BMPR1A | 0.79 | inactive
BMPR1A | 0.03 | inactive
BMPR1A | 1.74 | inactive
BMPR1A | 0.88 | inactive
FER1L5 | -0.05 | inactive
FER1L5 | 0.05 | inactive
FER1L5 | 0.12 | inactive
FER1L5 | 1.59 | inactive
TFDP1 | -0.49 | inactive
TFDP1 | 0.97 | inactive
TFDP1 | 0.6 | inactive
TFDP1 | 1.04 | inactive
ZNF2 | -0.67 | inactive
ZNF2 | 0.51 | inactive
ZNF2 | -1.01 | inactive
ZNF2 | -0.01 | inactive
ATP6V1G3 | -0.33 | inactive
ATP6V1G3 | -0.83 | inactive
ATP6V1G3 | 0.47 | inactive
ATP6V1G3 | -0.5 | inactive

Continued; the last 4 above are carried over.
target | TNF reporter robust z-score | activity call
ATP6V1G3 | -0.33 | inactive
ATP6V1G3 | -0.83 | inactive
ATP6V1G3 | 0.47 | inactive
ATP6V1G3 | -0.5 | inactive
OLFML3 | -0.22 | inactive
OLFML3 | 0.73 | inactive
OLFML3 | -0.09 | inactive
OLFML3 | -0.74 | inactive
DNAL4 | -0.02 | inactive
DNAL4 | -0.01 | inactive
DNAL4 | -0.11 | inactive
DNAL4 | -0.89 | inactive
TBC1D31 | 0.26 | inactive
TBC1D31 | 0.16 | inactive
TBC1D31 | 0.59 | inactive
TBC1D31 | 0.45 | inactive
SKIC2 | -0.7 | inactive
SKIC2 | -0.05 | inactive
SKIC2 | -1.04 | inactive
SKIC2 | -0.43 | inactive
GRIA4 | 1.33 | inactive
GRIA4 | -0.56 | inactive
GRIA4 | 0.31 | inactive
GRIA4 | 3.11 | active
GPR156 | 0.34 | inactive
GPR156 | 1.49 | inactive
GPR156 | 1.42 | inactive
GPR156 | 2.89 | active
HEY2 | -0.6 | inactive
HEY2 | -0.63 | inactive
HEY2 | -0.53 | inactive
HEY2 | -0.71 | inactive
OPA1 | -1.18 | inactive
OPA1 | -0.65 | inactive
OPA1 | -0.79 | inactive
OPA1 | -0.49 | inactive
TARS1 | 2.52 | inactive
TARS1 | 2.65 | inactive
TARS1 | 2.06 | inactive
TARS1 | 2.44 | inactive
NOC4L | -1.01 | inactive
NOC4L | -0.72 | inactive
NOC4L | -0.62 | inactive
NOC4L | -1.23 | inactive
RILPL2 | 2.49 | inactive
RILPL2 | 1.11 | inactive
RILPL2 | 3.45 | active
RILPL2 | 1.47 | inactive
SEC14L2 | -1.5 | inactive
SEC14L2 | -1.01 | inactive
SEC14L2 | -1.29 | inactive
SEC14L2 | -0.77 | inactive
EMP1 | 2.47 | inactive
EMP1 | 2.17 | inactive
EMP1 | 1.82 | inactive
EMP1 | 3.27 | active
MIR1-1HG | 0.65 | inactive
MIR1-1HG | 3.21 | active
MIR1-1HG | 1.21 | inactive
MIR1-1HG | 0.38 | inactive
MT1M | 0.22 | inactive
MT1M | 0.79 | inactive
MT1M | -0.2 | inactive
MT1M | 0.28 | inactive
MAP2K4 | 1.82 | inactive
MAP2K4 | 1.37 | inactive
MAP2K4 | 1 | inactive
MAP2K4 | 2.58 | inactive
RNF32 | -2.24 | active
RNF32 | -0.67 | inactive
RNF32 | 1.86 | inactive
RNF32 | 0.6 | inactive
